Assay results as given in publication PMC5552691, “Novel giardicidal compounds bearing proton pump inhibitor scaffold proceeding through triosephosphate isomerase inactivation” (Scientific Reports, 2017).

tested on: VERO cells; assay: Cytotoxicity assay (MTT) in VERO cells; type: cell-based; conditions: number in parenthesis
Description: The cytotoxic effect of these compounds was also evaluated in mammal cell cultures and their CC50 values calculated and depicted in Table 2.
We used the cell lines VERO (ATCC:CCL-81) and gingival human fibroblasts (kindly provided by Dra. María Dolores Farfán from Facultad de Odontología, Universidad Nacional Autónoma de México). The assay procedure is described below. Cells were maintained in a DMEM medium supplemented with antibiotic-antimycotic (1X), L-glutamine (1X) and 10% fetal bovine serum. Cells were incubated in 25 mL plastic culture flasks (Nunc) at 37 °C and 5% CO2. After the cell cultures grew to confluence, we determined the cell viability by using Trypan Blue method; then, cells were seeded at 4 × 10^4 cells/well in 100 µL culture medium during 24 hours. […] DMSO was maintained constant at 0.2%; a control was performed by incubating cells with this solvent concentration but in absence of compounds. After incubation time, we measured the cell viability by using MTT (3-(4,5-Dimethyl-2-thiazolyl)-2,5-diphenyl-2H-tetrazolium bromide; Roche Diagnostics) method. Briefly, 10 µL MTT (5 mg/mL) was added to cell cultures and incubated at 37 °C during four hours; then, 100 µL of solution containing 10% SDS and 0.01N HCl was added. Thereafter, the formazan products were spectrophotometrically quantified at 570 nm (Labxystem Uniskan, Manchester). The CC50 (median cytotoxicity concentration) and CI95 (95% confidence interval) values from each experiment were determined from the concentration-percentage plots of cell viability obtained by logistic regression. Statistical analysis was performed using the SPPSS software (version 17.0).

| SMILES | Ratio CC50/IC50 VERO cells vs trophozoites |
| --- | --- |
| COc1c(C)cnc(C[S+]([O-])c2nc3ccc(C)cc3[nH]2)c1C (stereo not drawn) [BHO2, 2-[(4-methoxy-3,5-dimethylpyridin-2-yl)methylsulfinyl]-5(6)-methyl-1H-benzimidazole] | 61 |
| Cc1ccc2nc([S+]([O-])Cc3nccc(OCC(F)(F)F)c3C)[nH]c2c1 (stereo not drawn) [BHO3, 5(6)-Methyl-2-({[3-methyl-4-(2,2,2-trifluoroethoxy)pyridin-2-yl]methyl}sulfinyl]-1H-benzimidazole] | 38 |
| COc1ccc2[nH]c([S+]([O-])Cc3ncc(C)c(OC)c3C)nc2c1 (stereo not drawn) [Omeprazole, omeprazole, reference compound] | 46 |
